Article PMC8953162
Results are given in words; binding and its absence hold for the method and conditions named. Binding seen in cells or lysates may run through a third protein. Some results given as binding are weak or reduced against the parent protein; the word gives no strength.

By UniProt entry, the sequences of proteins in these tests, tags left out. Where a name states a change or a piece, a line headed by the entry shows the natural chain unless it says otherwise.
UniProt P35367: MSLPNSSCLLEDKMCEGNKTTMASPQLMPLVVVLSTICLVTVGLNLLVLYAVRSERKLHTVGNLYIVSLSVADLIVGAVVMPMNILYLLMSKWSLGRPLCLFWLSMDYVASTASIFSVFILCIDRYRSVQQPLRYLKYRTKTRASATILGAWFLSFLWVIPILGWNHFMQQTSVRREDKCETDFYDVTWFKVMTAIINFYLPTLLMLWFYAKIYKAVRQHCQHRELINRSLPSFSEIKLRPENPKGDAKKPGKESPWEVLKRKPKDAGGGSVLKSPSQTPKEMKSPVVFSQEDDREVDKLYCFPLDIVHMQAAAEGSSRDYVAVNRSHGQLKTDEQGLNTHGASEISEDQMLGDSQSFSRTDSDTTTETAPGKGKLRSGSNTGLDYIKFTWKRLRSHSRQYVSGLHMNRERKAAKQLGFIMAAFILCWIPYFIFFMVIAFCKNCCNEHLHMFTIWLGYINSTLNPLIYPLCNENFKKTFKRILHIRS
UniProt P25098: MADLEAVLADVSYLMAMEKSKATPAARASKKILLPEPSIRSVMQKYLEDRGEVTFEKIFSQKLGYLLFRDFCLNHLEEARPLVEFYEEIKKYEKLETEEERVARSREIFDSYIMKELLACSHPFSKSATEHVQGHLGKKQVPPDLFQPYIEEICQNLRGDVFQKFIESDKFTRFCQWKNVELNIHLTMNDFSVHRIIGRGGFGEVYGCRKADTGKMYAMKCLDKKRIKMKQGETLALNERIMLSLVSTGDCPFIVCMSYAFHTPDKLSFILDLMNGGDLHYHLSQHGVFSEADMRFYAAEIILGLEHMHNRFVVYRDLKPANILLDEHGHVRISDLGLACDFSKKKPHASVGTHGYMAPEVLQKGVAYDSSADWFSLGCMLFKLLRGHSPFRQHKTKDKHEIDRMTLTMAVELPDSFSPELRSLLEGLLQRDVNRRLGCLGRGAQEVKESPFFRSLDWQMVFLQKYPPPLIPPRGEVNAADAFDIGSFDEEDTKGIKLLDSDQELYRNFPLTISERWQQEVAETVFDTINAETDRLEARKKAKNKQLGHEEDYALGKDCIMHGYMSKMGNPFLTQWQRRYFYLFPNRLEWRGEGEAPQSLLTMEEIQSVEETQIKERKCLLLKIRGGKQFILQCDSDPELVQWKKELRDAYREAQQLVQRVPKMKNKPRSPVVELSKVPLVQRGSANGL
UniProt P35626: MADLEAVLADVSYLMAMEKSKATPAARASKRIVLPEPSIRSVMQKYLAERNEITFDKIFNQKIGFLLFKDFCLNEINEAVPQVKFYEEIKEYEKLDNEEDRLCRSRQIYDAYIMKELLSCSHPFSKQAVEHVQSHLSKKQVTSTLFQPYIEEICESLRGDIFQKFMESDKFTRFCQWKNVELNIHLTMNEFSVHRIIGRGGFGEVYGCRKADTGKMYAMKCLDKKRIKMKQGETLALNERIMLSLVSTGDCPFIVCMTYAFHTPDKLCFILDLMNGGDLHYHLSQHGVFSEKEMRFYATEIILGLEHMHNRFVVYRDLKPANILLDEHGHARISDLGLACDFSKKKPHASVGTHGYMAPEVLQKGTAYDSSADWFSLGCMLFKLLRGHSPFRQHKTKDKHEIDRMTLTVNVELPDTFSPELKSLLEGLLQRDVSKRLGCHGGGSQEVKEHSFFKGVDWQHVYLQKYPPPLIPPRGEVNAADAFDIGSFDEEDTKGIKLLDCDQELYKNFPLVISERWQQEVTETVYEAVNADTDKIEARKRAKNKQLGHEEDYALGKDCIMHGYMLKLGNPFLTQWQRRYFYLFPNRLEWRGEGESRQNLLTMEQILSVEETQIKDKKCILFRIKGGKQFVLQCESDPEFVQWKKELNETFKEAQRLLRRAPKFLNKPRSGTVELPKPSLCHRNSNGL
UniProt P49407: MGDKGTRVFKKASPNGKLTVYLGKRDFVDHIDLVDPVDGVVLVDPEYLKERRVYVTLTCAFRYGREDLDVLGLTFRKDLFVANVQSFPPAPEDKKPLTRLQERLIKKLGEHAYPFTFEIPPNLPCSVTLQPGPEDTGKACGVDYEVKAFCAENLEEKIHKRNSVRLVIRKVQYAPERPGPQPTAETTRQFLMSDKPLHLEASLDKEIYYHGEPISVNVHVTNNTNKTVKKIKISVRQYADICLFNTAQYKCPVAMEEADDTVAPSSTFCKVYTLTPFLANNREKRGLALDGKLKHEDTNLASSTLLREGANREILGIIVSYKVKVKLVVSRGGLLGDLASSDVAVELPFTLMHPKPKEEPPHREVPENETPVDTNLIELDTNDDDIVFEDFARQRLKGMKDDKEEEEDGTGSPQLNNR
UniProt P32121: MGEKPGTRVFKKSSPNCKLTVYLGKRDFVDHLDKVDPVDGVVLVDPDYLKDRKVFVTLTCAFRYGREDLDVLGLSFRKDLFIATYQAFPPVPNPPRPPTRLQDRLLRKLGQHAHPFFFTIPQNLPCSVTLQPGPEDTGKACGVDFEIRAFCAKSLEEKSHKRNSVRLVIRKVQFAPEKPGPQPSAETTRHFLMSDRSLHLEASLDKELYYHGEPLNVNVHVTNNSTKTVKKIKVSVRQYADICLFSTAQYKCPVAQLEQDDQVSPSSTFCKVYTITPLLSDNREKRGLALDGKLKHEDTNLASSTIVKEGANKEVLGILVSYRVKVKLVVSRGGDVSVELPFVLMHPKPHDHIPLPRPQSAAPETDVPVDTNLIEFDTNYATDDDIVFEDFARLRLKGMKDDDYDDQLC

Target: Human histamine H1 receptor fused to Renilla luciferase 8 (H1R-Rluc8) (human) (UniProt P35367)
Test: FRET or BRET; BRET in living HEK293T cells co-expressing H1R-Rluc8 (donor) and an eYFP/mVenus fusion (acceptor); 5 µM coelenterazine-h in HBSS at 37 °C; basal BRET, then 10 µM histamine in real time or increasing concentrations of agonist for 1 h; ΔBRET against vehicle; 30-min pretreatment with vehicle, 3 µM cmpd101 or 1 µM UBO-QIC in some panels

Q: How did the binding turn out when “GPCR kinase 2 fused to mVenus (GRK2-mVenus) (from UniProt P25098 1-689) (enzyme)” was run?
A: binds

Q: For “GPCR kinase 3 fused to mVenus (GRK3-mVenus) (from UniProt P35626 1-688) (enzyme)”, which binding is on record?
A: binds

Q: How did the binding turn out when “β-arrestin1-enhanced yellow fluorescent protein (eYFP) (from UniProt P49407 1-418)” was run?
A: binds

Q: Which binding does the source give for “β-arrestin2-mVenus (from UniProt P32121 1-409)” here?
A: binds
